## Primary screen of a compound library

The chains behind the UniProt entries cited, without tags or fusion partners. Residues count along the entry.
UniProt A4I591, 1-473: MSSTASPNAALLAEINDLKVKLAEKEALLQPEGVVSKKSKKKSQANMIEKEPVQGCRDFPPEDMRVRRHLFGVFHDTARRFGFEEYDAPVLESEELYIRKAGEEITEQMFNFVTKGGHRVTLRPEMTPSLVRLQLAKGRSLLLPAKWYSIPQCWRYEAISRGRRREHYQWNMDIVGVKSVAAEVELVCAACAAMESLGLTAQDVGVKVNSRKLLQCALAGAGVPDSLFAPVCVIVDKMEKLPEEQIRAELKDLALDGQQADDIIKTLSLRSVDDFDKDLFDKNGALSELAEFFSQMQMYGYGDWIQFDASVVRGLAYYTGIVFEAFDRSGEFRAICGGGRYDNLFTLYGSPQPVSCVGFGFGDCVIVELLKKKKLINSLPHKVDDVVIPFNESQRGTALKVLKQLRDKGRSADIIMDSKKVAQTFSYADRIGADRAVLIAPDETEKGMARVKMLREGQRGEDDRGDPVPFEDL

Source: ChEMBL document CHEMBL3988442, “University of Dundee, Small-Polar-MMV Screening Library” (2021).

The filed quantity is “Percent Effect” (%). How 0% and 100% were set is not recorded. Most values in the screen are low, and negative values occur. This is an unselected part of the compounds tested. A dash means the value is not listed here; it may have been measured.

LiHisRS: 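Enzyme assay of histidyl-tRNA synthetase; the read-out is not stated. Target: Histidine-tRNA ligase, Leishmania infantum (UniProt A4I591). Tested at 30 µM. The record gives no direction; compounds that gave an IC50 in retests scored well above the rest, so higher reads as stronger inhibition. The assay is labelled LdHisRS but filed under L. infantum. Of about 69,000 compounds tested this way, about 410 (0.6%) reached 50% or more in at least one test.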
Toxoplasma: 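Assay of Toxoplasma gondii numbers, read through their beta-galactosidase reporter with a colour substrate. Tested at 10 µM. Higher reads as fewer parasites (inferred from which compounds were picked for retests). About 67,000 compounds were tested under these conditions; 0.38% (about 260) showed 50% or more at least once.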

{"smiles": "COc1ccccc1Oc1ncccc1CNC(=O)C1(C)CCCNC1", "stereo": "centres undefined", "LiHisRS": 27.4, "Toxoplasma": -4.965}
{"smiles": "NC(=O)c1nc2c(s1)CCN(Cc1ccccc1)CC2", "LiHisRS": 5.983}
{"smiles": "CCc1nc(CNCC2CCCN2c2cccnn2)cs1", "stereo": "centres undefined", "LiHisRS": 12.5, "Toxoplasma": -1.861}
{"smiles": "CN1C(=O)C2(CCNCC2)c2cc(F)ccc21.Cl", "Toxoplasma": 7.615}
{"smiles": "CNC(=O)c1sc2ccccc2c1CC1CCCCN1Cc1ncc[nH]1", "stereo": "centres undefined", "LiHisRS": 20.29, "Toxoplasma": 1.201}
{"smiles": "Cc1csc2c(N3CCNC(C(=O)N4CCCC4)C3)ncnc12", "stereo": "centres undefined", "LiHisRS": 19.67, "Toxoplasma": -40.8}
{"smiles": "Cc1nn(C)c(C)c1OCC(=O)NCC(O)c1ccccc1F", "stereo": "centres undefined", "LiHisRS": -4.478, "Toxoplasma": -3.105}
{"smiles": "Cc1cnn(CCNc2ncnc3c2CCN(CC2CCOC2)CC3)c1", "stereo": "centres undefined", "LiHisRS": 5.333, "Toxoplasma": -3.373}
{"smiles": "CCc1cc(CN(C)C(=O)CN2CC(Cc3ccccc3)CC2=O)on1", "stereo": "centres undefined", "LiHisRS": 10.45, "Toxoplasma": -8.626}
{"smiles": "CS(=O)(=O)NCc1nnc2n1CCN(Cc1cccs1)CC2.O=C(O)C(F)(F)F", "Toxoplasma": -36.69}
{"smiles": "Cc1cc2nc(C(C)C)cc(N3CCN(c4ccc(O)cc4)CC3)n2n1", "LiHisRS": 11.96, "Toxoplasma": 11.05}
{"smiles": "CCc1nc(N2CCC3(CC2)OCCCC3O)ncc1C", "stereo": "centres undefined", "LiHisRS": 7.143, "Toxoplasma": -3.745}
{"smiles": "CCc1nc(C2CCCN2CC(=O)Nc2nnc(C)s2)no1", "stereo": "centres undefined", "LiHisRS": 3.478, "Toxoplasma": 5.138}
{"smiles": "CC1CCN(c2ncc3c(n2)CN(Cc2cccc(F)c2)C3=O)CC1", "LiHisRS": 7.143, "Toxoplasma": 15.96}
{"smiles": "O=C(O)C(F)(F)F.[H][C@@]12OCCN(CC3CCOCC3)[C@@]1([H])CC[C@H]2OCC", "Toxoplasma": 2.834}
{"smiles": "COC(=O)c1cccc(C(=O)N2CCN(c3ccc(OC)cc3)CC2)n1", "LiHisRS": 17.98, "Toxoplasma": 16.37}
{"smiles": "CC(=O)N1CCC(c2nnc3ccc(C(=O)NC(C)C)cn23)C1", "stereo": "centres undefined", "LiHisRS": -14, "Toxoplasma": 15}
{"smiles": "[H][C@]12C[C@H](CNC(=O)C3CCC3)O[C@@]1([H])CN(C(=O)c1ccno1)C2", "Toxoplasma": 0.9043}
{"smiles": "CC(C)(N)C(=O)N1CCC(c2nccnc2Oc2cccc(F)c2)CC1", "LiHisRS": 4.348, "Toxoplasma": 0.08618}
{"smiles": "O=C(CNc1nc(C(F)(F)F)cs1)N1CCc2sccc2C1", "LiHisRS": 11.61, "Toxoplasma": -0.268}
{"smiles": "c1cc(C2CC2)n2cnc(C3CN(Cc4ccncc4)CCO3)c2c1", "stereo": "centres undefined", "LiHisRS": 27.59}
{"smiles": "CC(CC(=O)NCCCn1cccn1)c1cccnc1", "stereo": "centres undefined", "LiHisRS": 2.679, "Toxoplasma": -5.93}
{"smiles": "COc1ccccc1CC1CCCN(CC(=O)NC2CC2)C1", "stereo": "centres undefined", "LiHisRS": 9.917, "Toxoplasma": -14.48}
{"smiles": "CCc1ncc(CN2CCCN(CC3CC3)C(C(C)C)C2)cn1", "stereo": "centres undefined", "LiHisRS": 15, "Toxoplasma": 2.488}
{"smiles": "COCC(=O)N1CCN(Cc2cccnc2)c2ncccc2C1", "LiHisRS": -1.389}
{"smiles": "Cc1cc(C)n(CC2CN(Cc3nc(C4CC4)no3)CCO2)n1", "stereo": "centres undefined", "LiHisRS": 13.68, "Toxoplasma": -0.7012}
{"smiles": "O=C(Cc1ccsc1)N1Cc2nc(CN3CCCCC3)oc2C1.O=C(O)C(F)(F)F", "Toxoplasma": -12.78}
{"smiles": "Fc1ccc(OCc2nnc([C@H]3CCN(Cc4cccnc4)C3)o2)cc1", "LiHisRS": 19.44, "Toxoplasma": 3.732}
{"smiles": "CN(C)C(=O)CNS(=O)(=O)c1cc(Br)ccc1F", "LiHisRS": 23.08, "Toxoplasma": 11.42}
{"smiles": "CN(C)CCN1CCOCC2(CCCN(C(=O)Cc3ccccc3)C2)C1", "stereo": "centres undefined", "LiHisRS": 2.857}
{"smiles": "Cc1cc(=O)[nH]cc1C(=O)N1CCN(C)c2ccccc2C1", "LiHisRS": 16.33, "Toxoplasma": -7.414}
{"smiles": "COC1CCCN(C(=O)NCC(F)F)C1", "stereo": "centres undefined", "LiHisRS": 12.77, "Toxoplasma": 3.071}
{"smiles": "[H][C@@]12CS(=O)(=O)C[C@]1([H])N(C(=O)c1ncoc1C)CCN2C(=O)CC(C)C", "Toxoplasma": 1.947}

Once more, the final 2:

SMILES	LiHisRS	Toxoplasma
COC1CCCN(C(=O)NCC(F)F)C1 (centres undefined)	12.77%	3.071%
[H][C@@]12CS(=O)(=O)C[C@]1([H])N(C(=O)c1ncoc1C)CCN2C(=O)CC(C)C	-	1.947%